# Laboratory results reported in PubChem BioAssay (Tox21).
# Shown are results outside the selection of hits, which stands elsewhere. Inconclusive results are not listed. Active and inactive are the calls of the source. Unless noted, calls come from the whole dose curve; as a rule, active = well fitted cell-killing curve with a large enough effect in the repeat runs; inconclusive = weak or mixed curves, or effect the other way; inactive = flat fitted curve, though single readings scatter.
# Experiments:
# [1] = Nuclear factor erythroid 2-related factor 2/antioxidant responsive element (Nrf2/ARE) small molecule agonists: qHTS cell viability counter screen in human keratinocytes (AID 1919968); settings: KeratinoSens HaCaT ARE cells viability, CellTiter-Fluor, 24 h; at 92.4 µM (top of the series); note: nearly all actives have a fitted effect of over 55% in size
# Procedure, shortened: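 Viability counter-screen: KeratinoSens reporter cells, DMSO-delivered compounds, 23 h at 37 C, CellTiter-Fluor fluorescence.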
# [2] = Nuclear factor erythroid 2-related factor 2/antioxidant responsive element (Nrf2/ARE) small molecule agonists: luciferase reporter gene qHTS assay in human keratinocytes (AID 1919969; calls by dose curve; note: nearly all actives have a fitted effect of over 35% in size); settings: KeratinoSens HaCaT ARE-luciferase, luminescence, 24 h; at 92.4 µM (top of the series)
# Excerpt: National Center for Advancing Translational Sciences [NCATS]
# Division of Preclinical Innovation [DPI]
# U.S. Environmental Protection Agency [EPA]
# National Institutes of Environmental Health Sciences [NIEHS]
# National Toxicology Program [NTP]
# U.S. Food and Drug Administration [FDA]
# Oxidative stress has been implicated in the pathogenesis of a variety of diseases ranging from cancer to neurodegeneration. The antioxidant response element (ARE) signaling pathway plays an important role in the amelioration of oxidative stress. The KeratinoSens (Givaudan, Switzerland) is an in vitro test method which quantifies luciferase induction as a measure of activation of Keap1-Nrf2-antioxidationt/electrophile response element (ARE) dependant pathway in HaCaT human keratinocytes stably transfected with a selectable plasmid. […] The activation of the report gene under culture conditions can be detected by ONE-Glo Luciferase Assay System (Promega, Madison, WI). […]
# HaCaT derived cell line KeratinoSens were dispensed at 1,500 cells/5uL/well in 1536-well white wall/solid bottom plates using a Multidrop Combi (ThermoFisher Scientific, Waltham, MA) dispenser. […] The plates were incubated at 37 C/5% CO2 for 23 h, followed by addition of 1uL/well of CellTiter-Fluor reagent into the assay plates using a Flying Reagent Dispenser (Aurora Discovery, San Diego, CA) for cell viability readout that measures cytotoxicity. […]
# % is set by controls: 0 for no effect and ±100 for the full control effect.
smiles,measurement,setting,value
CN1CC[C@]23c4c5ccc(O)c4O[C@H]2[C@@H](O)C=C[C@H]3[C@H]1C5,"activity change, negative = cytotoxicity",[1],inactive: -0.224%
same,"activity, positive = activation",[2],inactive: 2.58%
